Test results published in PubChem BioAssay (EPA / NIEHS).
The shares of active, inactive and inconclusive entries below differ from those in the screen. For some of these results: Potencies of inconclusive entries are doubtful fits and often do not repeat. The source holds several records for some structures; these can differ, active in one and inactive in another. Activity calls are given as the source filed them. How the source made its calls: active means hit-call score of the fitted dose curve at least 0.9, where 1 is the maximum; inconclusive means response in the unintended direction; inactive means score below 0.9.

By UniProt entry, the sequences of proteins in these tests, tags left out. Where a name states a change or a piece, a line headed by the entry shows the natural chain unless it says otherwise.
UniProt P08173, whole entry, looked up: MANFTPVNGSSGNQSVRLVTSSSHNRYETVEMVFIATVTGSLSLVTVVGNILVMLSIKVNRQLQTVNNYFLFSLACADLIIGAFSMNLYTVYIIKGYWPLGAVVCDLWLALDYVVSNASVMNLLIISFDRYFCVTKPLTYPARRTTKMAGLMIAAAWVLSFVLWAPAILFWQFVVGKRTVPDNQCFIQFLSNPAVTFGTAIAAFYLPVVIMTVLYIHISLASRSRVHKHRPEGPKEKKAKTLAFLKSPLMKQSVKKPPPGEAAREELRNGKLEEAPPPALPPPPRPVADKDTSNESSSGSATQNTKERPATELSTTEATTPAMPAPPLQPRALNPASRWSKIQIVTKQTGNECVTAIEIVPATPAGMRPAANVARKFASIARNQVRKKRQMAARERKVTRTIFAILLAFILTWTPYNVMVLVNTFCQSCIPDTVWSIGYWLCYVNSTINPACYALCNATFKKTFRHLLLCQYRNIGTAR
UniProt P49146, whole entry, looked up: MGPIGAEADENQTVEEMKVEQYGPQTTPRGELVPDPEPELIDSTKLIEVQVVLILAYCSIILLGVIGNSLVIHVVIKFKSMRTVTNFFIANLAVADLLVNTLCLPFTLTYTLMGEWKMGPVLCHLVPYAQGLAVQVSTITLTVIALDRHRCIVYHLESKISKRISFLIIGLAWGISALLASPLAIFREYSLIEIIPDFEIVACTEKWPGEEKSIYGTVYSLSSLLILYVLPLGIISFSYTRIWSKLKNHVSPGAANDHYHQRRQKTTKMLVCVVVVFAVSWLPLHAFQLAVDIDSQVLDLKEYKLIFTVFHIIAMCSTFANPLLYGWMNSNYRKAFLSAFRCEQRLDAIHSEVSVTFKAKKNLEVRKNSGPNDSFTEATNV
UniProt P21452, whole entry, looked up: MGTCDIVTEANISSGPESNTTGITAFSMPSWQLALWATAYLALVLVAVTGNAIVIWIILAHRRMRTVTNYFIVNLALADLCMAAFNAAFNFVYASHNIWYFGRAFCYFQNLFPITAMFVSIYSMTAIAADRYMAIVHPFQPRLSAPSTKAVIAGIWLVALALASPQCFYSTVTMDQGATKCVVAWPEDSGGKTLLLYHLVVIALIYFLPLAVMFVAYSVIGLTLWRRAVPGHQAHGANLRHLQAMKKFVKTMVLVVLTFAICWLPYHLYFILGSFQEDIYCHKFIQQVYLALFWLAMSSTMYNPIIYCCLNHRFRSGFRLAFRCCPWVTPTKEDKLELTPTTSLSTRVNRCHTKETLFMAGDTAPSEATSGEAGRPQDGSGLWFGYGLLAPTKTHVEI
UniProt P30989, whole entry, looked up: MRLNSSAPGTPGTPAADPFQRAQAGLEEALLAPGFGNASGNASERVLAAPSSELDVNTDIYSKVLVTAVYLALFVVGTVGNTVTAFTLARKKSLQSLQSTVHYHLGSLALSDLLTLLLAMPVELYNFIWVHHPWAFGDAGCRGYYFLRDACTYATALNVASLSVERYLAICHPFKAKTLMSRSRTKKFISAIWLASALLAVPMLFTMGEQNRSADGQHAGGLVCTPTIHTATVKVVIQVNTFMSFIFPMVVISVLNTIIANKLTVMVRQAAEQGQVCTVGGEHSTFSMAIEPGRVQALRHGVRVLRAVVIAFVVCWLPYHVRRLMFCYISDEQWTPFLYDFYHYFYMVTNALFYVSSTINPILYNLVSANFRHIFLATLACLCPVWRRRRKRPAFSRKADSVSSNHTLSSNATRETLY
UniProt P19327, whole entry, looked up: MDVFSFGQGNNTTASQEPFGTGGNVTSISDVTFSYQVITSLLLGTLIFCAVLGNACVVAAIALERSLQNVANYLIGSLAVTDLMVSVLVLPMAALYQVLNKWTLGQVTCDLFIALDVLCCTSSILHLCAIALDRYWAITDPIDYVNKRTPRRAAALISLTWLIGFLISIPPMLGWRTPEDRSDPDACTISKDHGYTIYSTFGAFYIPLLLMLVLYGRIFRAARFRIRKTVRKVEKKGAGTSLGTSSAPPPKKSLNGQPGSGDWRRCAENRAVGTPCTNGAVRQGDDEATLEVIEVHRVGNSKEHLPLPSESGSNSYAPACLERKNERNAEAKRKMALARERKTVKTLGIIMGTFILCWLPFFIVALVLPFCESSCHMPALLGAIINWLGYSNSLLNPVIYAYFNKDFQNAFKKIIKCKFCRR
UniProt P43140: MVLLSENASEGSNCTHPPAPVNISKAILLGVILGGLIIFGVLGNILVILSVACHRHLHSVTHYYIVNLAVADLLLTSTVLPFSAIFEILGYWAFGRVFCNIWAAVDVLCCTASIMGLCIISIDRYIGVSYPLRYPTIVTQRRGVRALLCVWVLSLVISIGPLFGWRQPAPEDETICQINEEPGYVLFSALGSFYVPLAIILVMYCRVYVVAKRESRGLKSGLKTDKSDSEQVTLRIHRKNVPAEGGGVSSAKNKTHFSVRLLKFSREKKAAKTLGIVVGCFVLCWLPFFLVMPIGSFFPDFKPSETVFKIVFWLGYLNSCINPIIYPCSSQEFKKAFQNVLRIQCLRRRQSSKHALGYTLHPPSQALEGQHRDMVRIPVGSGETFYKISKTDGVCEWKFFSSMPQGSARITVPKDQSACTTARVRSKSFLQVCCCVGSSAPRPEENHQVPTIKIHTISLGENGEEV

Each molecule was assayed against human Muscarinic, M4 Receptor, CHRM4 (gene 1132) (UniProt P08173) (assay: NVS_GPCR_hM4: NovaScreen (NVS) G Protein-Coupled Receptor Assay for human Muscarinic, M4 Receptor (AID 2283274)).
Outline: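 Cell-free radioligand displacement using CHO-derived human M4 receptor protein, 1 h after dosing; bound radioactivity by filtration and scintillation counting. Primary screen single 25 uM duplicate, actives followed in concentration series.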
`O=S(=O)(O)c1ccc(N=Nc2c(O)ccc3cc(S(=O)(=O)O)ccc23)cc1` was tested, and the outcome was “inactive”.
`O=C(NS(=O)(=O)/C=C/c1cccs1)c1ccc(F)cc1Br` was tested, and the AC50 was inconclusive: 543 nM.
With `O=C(O)Cc1cc(I)c(Oc2ccc(O)c(I)c2)c(I)c1` the AC50 was inconclusive: 313 nM.
`COc1cc(S(=O)(=O)O)c(C)cc1N=Nc1c(O)ccc2cc(S(=O)(=O)O)ccc12` was tested, and the outcome was “inactive”.
For `O=NO`, the outcome was “inactive”.
`CCOC(=O)CCC(=O)OCC` was tested, and the AC50 was inconclusive: 9220 nM.
For `Cc1[nH]cnc1C[C@H]1CCc2c(C)c3ccccc3n2C1=O`, the outcome was “inactive”.
`C=CCCCCCCCCCCCC` was tested, and the AC50 was inconclusive: 144 nM.

What follows are molecules tested against Neuropeptide Y receptor type 2 (Homo sapiens) (UniProt P49146) (assay: NVS_GPCR_hNPY2: NovaScreen (NVS) G Protein-Coupled Receptor Assay for human Neuropeptide Receptor Y2 (NPY2) (AID 2283277)).
Outline: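 Radioligand binding on membranes extracted from SK-N-MC cells, cell-free, read 1 h after dosing by filter-based scintillation counting. Loss of signal vs DMSO. Primary screen in duplicate at 25 uM; actives followed up in concentration-response up to 50 uM.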
With `CC(C)=CCC/C(C)=C\CO` the AC50 was inconclusive: 25 µM.
With `CCCCCCCCCCCC(=O)OC` the AC50 was active: 6.92 µM.
`O=C(Nc1ccc([N+](=O)[O-])cc1Cl)c1cc(Cl)ccc1O` was tested, and the AC50 was inconclusive: 46.4 µM.
For `CCOC(=O)CCC(=O)OCC`, the outcome was “inactive”.
`Cc1ccc(Cl)cc1` was tested, and the outcome was “inactive”.
`O=C1O[C@H]([C@@H](O)CO)C(O)=C1O` was tested, and the AC50 was inconclusive: 1.35 µM.
`Nc1ccn([C@@H]2O[C@H](CO)[C@@H](O)[C@@H]2O)c(=O)n1` was tested, and the AC50 was inconclusive: 5.99 µM.
`CCCCC(CC)COC(=O)CCCCC(=O)OCC(CC)CCCC` (stereo unspecified) was tested, and the outcome was “inactive”.
With `O=C(OCCOCCOC(=O)c1ccccc1)c1ccccc1` the AC50 was inconclusive: 25 µM.

What follows are molecules tested against human Neurokinin, NK2 Receptor, TACR2 (gene 6865) (UniProt P21452) (assay: NVS_GPCR_hNK2: NovaScreen (NVS) G Protein-Coupled Receptor Assay for human Neurokinin, NK2 Receptor (AID 2283278);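 further: actives reduce bound radioligand signal relative to DMSO baseline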).
Outline: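 Test chemicals displace a radioligand from receptor prepared from CHO cells in a cell-free format, read after 4 hours by scintillation counting on filters. Screening starts at 25 uM in duplicate, and active chemicals then go to concentration series.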
`N#[N+]c1ccc2c(S(=O)(=O)[O-])cccc2c1O` was tested, and the AC50 was inconclusive: 23.5 µM.
With `NNC(=O)c1ccncc1` the AC50 was active: 2.18 µM.
In the case of `Oc1c(Cl)cc(Cl)c(Cl)c1Cc1c(O)c(Cl)cc(Cl)c1Cl`, the AC50 is reported as inconclusive: 39.2 µM.
In the case of `Cn1cnc2c1c(=O)[nH]c(=O)n2C`, the AC50 is reported as inconclusive: 10.5 µM.
`CN(C)C(=O)Nc1ccc(Oc2ccc(Cl)cc2)cc1` was tested, and the outcome was “inactive”.
For `O=C(NS(=O)(=O)/C=C/c1cccs1)c1ccc(F)cc1Br`, the AC50 was inconclusive: 6.53 µM.
With `O=C(O)Cc1cc(I)c(Oc2ccc(O)c(I)c2)c(I)c1` the AC50 was inconclusive: 25 µM.
For `CC/C(=C\C(=N/O)C(N)=O)C(C)[N+](=O)[O-]` (stereo unspecified), the outcome was “inactive”.
For `CC(=O)OCCC(C)C`, the AC50 was inconclusive: 6.84 µM.
For `[Cl][Sc]([Cl])[Cl]`, the outcome was “inactive”.
`CS(=O)(=O)c1ccc([C@@H](C[C@H]2CCC(=O)C2)C(=O)Nc2cnccn2)cc1Cl` was tested, and the AC50 was inconclusive: 25 µM.
`O=C1OC2(c3ccccc31)c1cc(I)c(O)c(I)c1Oc1c2cc(I)c(O)c1I` was tested, and the AC50 was active: 1.78 µM.
For `CC(C)(C)c1ccc(O)c(O)c1`, the outcome was “inactive”.
With `COc1cc(C(=O)NC2CCN(C)CC2)ccc1Nc1ncc2c(n1)N(C1CCCC1)CC(F)(F)C(=O)N2C` the outcome was “inactive”.
For `COc1cc(C(C)C)c2c(c1)S(=O)(=O)N(COc1cc(=O)n3cccc(OCCN4CCCCC4)c3n1)C2=O`, the AC50 was inconclusive: 6.25 µM.

Each molecule was assayed against human Neurotensin Receptor (NTS), NTSR1 (gene 4923) (UniProt P30989) (assay: NVS_GPCR_hNTS: NovaScreen (NVS) G Protein-Coupled Receptor Assay for human Neurotensin Receptor (NTS) (AID 2283279)).
Outline: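 Radioligand displacement on human NTSR1 protein from CHO cells, cell-free, 1 h, filter-based scintillation counting. Primary screen at 25 uM in duplicate; hits rerun in concentration-response up to 50 uM.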
`CCNc1nc(N)nc(Cl)n1` was tested, and the AC50 was inconclusive: 6.65 µM.
In the case of `Cc1ccc(C)c(O)c1`, the AC50 is reported as active: 9.84 µM.
With `C/C=C/C=C/C(=O)O` the outcome was “inactive”.
For `NC(=O)N(O)[C@@H]1COc2cc(OCc3ccccc3)ccc21`, the AC50 was inconclusive: 25 µM.
With `CN(C)CCCN1c2ccccc2Sc2ccc(Cl)cc21` the AC50 was active: 14.5 µM.
For `CC(C)(C)CC(C)(C)c1ccc(O)c(-n2nc3ccccc3n2)c1`, the AC50 was active: 19.4 µM.
For `COC(=O)c1ccc(I)cc1S(=O)(=O)NC(=O)Nc1nc(C)nc(OC)n1`, the AC50 was inconclusive: 25 µM.

These molecules were tested against rat Serotonin, 5-Hydroxytryptamine Receptor 1 (5HT1), Non-Selective Binding, Htr1a (gene 24473) (UniProt P19327) (assay: NVS_GPCR_r5HT1_NonSelective: NovaScreen (NVS) G Protein-Coupled Receptor Assay for rat Serotonin, 5-Hydroxytryptamine Receptor 1 (5HT1), Non-Selective Binding (AID 2283286)).
Outline: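 Rat cortical membranes, radioligand displacement, 1 h incubation, read by filter scintillation. Primary screen in duplicate at 25 uM. Hits (e.g. ≥30% inhibition) went to concentration-response up to 50 uM, fitted as loss of binding versus DMSO.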
`CN(C)CCCN1c2ccccc2Sc2ccc(Cl)cc21` was tested, and the AC50 was active: 8.89 µM.
With `Cc1[nH]cnc1C[C@H]1CCc2c(C)c3ccccc3n2C1=O` the outcome was “inactive”.
For `COc1cc(C(=O)NC2CCN(C)CC2)ccc1Nc1ncc2c(n1)N(C1CCCC1)CC(F)(F)C(=O)N2C`, the outcome was “inactive”.

What follows are molecules tested against rat Adrenergic, Alpha 1, Non-selective Receptor (Adra1), Adra1a (gene 29412) (UniProt P43140) (assay: NVS_GPCR_rAdra1_NonSelective: NovaScreen (NVS) G Protein-Coupled Receptor Assay for rat Adrenergic, Alpha 1, Non-selective Receptor (Adra1) (AID 2283289)).
Outline: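 Rat forebrain membranes; radioligand displacement read by filter-based scintillation counting 1 h after dosing. Primary screen in duplicate at 25 uM; hits (e.g. ≥30% inhibition) rerun as concentration–response to 50 uM max. Fitted versus DMSO.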
`Cc1ccc(C)c(O)c1` was tested, and the outcome was “inactive”.
With `Cn1cnc2c1c(=O)[nH]c(=O)n2C` the AC50 was inconclusive: 0.564 µM.
For `CCOC(=O)CCC(=O)OCC`, the AC50 was inconclusive: 25 µM.
With `Cc1[nH]cnc1C[C@H]1CCc2c(C)c3ccccc3n2C1=O` the AC50 was active: 3.15 µM.
